Assay results published in patent US20120202233A1.
These are yes or no findings as the source states them, for the method shown. Binding seen in cells or lysates may run through a third protein. Some results given as binding are weak or reduced against the parent protein; the word gives no strength. For some of these results: Tags and fused reporters may be left off the sequences shown.

Legend:
[1] = target: T1, FLAG-KSR (wild-type KSR1) (mouse) (UniProt Q61097); assay: co-immunoprecipitation with wild-type FLAG-KSR; basal dimers of wild-type BRAF as the reference (FIG. 4B)
T1 sequence (looked up): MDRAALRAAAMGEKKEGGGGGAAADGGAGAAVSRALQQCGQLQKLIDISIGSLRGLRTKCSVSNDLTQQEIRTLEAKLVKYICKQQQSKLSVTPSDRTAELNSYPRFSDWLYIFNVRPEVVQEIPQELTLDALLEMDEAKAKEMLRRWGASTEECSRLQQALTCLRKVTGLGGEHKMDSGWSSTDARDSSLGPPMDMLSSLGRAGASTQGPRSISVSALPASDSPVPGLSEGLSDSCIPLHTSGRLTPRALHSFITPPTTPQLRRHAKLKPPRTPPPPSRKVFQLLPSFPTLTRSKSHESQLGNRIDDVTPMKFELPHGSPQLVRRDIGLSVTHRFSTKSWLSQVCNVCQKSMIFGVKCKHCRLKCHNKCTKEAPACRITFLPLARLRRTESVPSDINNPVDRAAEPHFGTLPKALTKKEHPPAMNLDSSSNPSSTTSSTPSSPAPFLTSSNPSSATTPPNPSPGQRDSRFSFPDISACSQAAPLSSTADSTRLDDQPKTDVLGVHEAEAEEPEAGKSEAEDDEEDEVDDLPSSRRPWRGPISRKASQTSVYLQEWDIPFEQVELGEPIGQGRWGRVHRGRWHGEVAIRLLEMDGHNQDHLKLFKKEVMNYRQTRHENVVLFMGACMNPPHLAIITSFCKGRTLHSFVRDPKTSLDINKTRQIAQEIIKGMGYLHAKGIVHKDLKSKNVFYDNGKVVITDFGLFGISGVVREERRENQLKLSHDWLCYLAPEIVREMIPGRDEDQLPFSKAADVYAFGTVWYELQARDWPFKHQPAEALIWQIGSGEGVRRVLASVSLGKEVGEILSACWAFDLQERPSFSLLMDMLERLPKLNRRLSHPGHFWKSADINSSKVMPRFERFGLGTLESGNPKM

[2] = target: T1, FLAG-KSR (wild-type KSR1) (mouse); assay: co-immunoprecipitation with wild-type FLAG-KSR (FIG. 4B)
[3] = target: myc-CRAF (wild type) (Homo sapiens (Human)) (UniProt P04049); assay: co-immunoprecipitation after GDC0879 or PLX4720 treatment (FIG. 1C)
[4] = target: BRAF (wild type) (Homo sapiens (Human)) (UniProt P15056); assay: co-immunoprecipitation: KSR IP, BRAF blot; cells treated with drug for 1 hour (FIG. 1B)
[5] = target: myc-CRAF (wild type) (Homo sapiens (Human)) (UniProt P04049); assay: co-immunoprecipitation: FLAG-KSR IP, myc blot; cells treated with drug for 1 hour (FIG. 1C)
[6] = target: BRAF (wild type) (Homo sapiens (Human)) (UniProt P15056); assay: co-immunoprecipitation after GDC0879 or PLX4720 treatment (FIG. 1B)
[7] = target: BRAF (wild type) (Homo sapiens (Human)) (UniProt P15056); assay: co-immunoprecipitation: FLAG-KSR IP, BRAF blot; wild type as the reference (FIG. 2G)

BRAF (wild type) (from UniProt P15056 1-766) (enzyme)
binding [1]: binds

BRAF A481F (from UniProt P15056 1-766) (enzyme)
binding [2]: binds

FLAG-KSR (wild-type KSR1) (from UniProt Q61097 1-873) (enzyme)
binding [3]: binds
binding [4]: binds
binding [5]: binds
binding [6]: binds
binding [7]: binds
